Results from PubChem BioAssay AID1671190 (National Center for Advancing Translational Sciences (NCATS), 2021).
Hit rate of the full screen: of about 580,000 compounds, about 6,100 (1.1%) were called active. The inconclusive results got no clear call from the source; some entries with a clear call stand among them for comparison. Calls follow the shape of the dose curve; as a rule, active = well fitted inhibition curve with a large enough effect; inconclusive = small, poorly fitted or top-dose-only effect, or another doubt; inactive = no such curve, though single readings can be large or run the other way. Potencies beside an inconclusive call are fits to weak or partial responses and may not hold up.

The chains behind the UniProt entries cited, without tags or fusion partners. Where a name states a change or a piece, a line headed by the entry shows the natural chain unless it says otherwise.
UniProt P18054: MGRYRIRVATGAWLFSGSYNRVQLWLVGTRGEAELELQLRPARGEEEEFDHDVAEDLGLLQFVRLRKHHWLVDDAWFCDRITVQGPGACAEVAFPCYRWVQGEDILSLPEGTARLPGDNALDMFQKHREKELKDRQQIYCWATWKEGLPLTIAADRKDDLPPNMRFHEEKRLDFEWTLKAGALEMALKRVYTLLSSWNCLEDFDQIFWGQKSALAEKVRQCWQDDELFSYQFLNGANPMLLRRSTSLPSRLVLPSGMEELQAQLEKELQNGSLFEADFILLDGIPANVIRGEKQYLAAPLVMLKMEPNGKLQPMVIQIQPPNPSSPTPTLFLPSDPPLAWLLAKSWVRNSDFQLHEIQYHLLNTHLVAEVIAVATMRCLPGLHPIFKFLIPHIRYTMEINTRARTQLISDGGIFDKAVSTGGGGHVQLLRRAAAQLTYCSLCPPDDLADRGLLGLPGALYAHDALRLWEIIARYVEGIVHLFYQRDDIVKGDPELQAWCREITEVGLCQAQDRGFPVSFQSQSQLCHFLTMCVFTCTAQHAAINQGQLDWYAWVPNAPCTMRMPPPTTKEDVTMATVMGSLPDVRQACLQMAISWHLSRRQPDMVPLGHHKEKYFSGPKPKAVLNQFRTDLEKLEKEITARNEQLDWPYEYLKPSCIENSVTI

These compounds were tested against Polyunsaturated fatty acid lipoxygenase ALOX12 (Homo sapiens) (UniProt P18054) (assay: Primary qHTS assay for inhibitors of human arachidonate 12S-lipoxygenase (ALOX12): Round 2). Settings: purified 12hLO, xylenol orange hydroperoxide absorbance; activity change, negative = inhibition: at 108 µM (top of the series) unless noted.
Outline: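 Purified human 12hLO at 150 nM in 25 mM Hepes, 0.01% Triton X-100, pH 7.0, preincubated 15 min at room temperature with compound. Reaction started with 40 uM arachidonic acid, 30 min at room temperature. Hydroperoxide measured by Fe-xylenol orange, 573/405 nm absorbance ratio.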
% is scaled to controls: 0 for no effect and ±100 for the full control effect; potency is read from the fitted curve at half-maximal effect.

Compound | Potency | activity change, negative = inhibition
O=C(c1cccs1)N1CCC(c2nc3c(nnn3Cc3ccccc3Cl)c(=O)[nH]2)CC1 | inconclusive: 89.1 µM [inhibitor, single point] | –
[N-]=C=C1C(=S)NC(=O)[C@H]([n+]2ccccc2)[C@H]1c1ccc(Cl)cc1 | active: 10 µM | –
N=C(N)SCCc1ccc(OCc2ccc([N+](=O)[O-])cc2)cc1 | inconclusive: 28.2 µM [inhibitor, single point] | –
CCOc1ccccc1CN1CCNC(=O)C1CC(=O)NCc1nccn1CC (centres undefined) | – | inactive: 7.28%
O=C(NC1CCCCC1)C(c1ccnc2ccccc12)N1CCc2ccccc2C1 (centres undefined) | inconclusive: 15.8 µM [inhibitor, full curve] | –
O=C(C1CCN(c2cnn(Cc3ccccc3)c(=O)c2)C1)N1CCc2ccccc2C1 (centres undefined) | inconclusive: 79.4 µM [inhibitor, single point] | –
CC(C)c1cccc(-c2csc(C(O)c3ccco3)n2)c1 (centres undefined) | active: 14.1 µM | –
CC(=O)NCc1ccc(C(=O)NC(c2ccccc2)C(C)C)cc1 (centres undefined) | inconclusive: 7.08 µM [inhibitor, full curve, poor fit] | –
Cn1c(NCCN(CCO)CCCc2ccc([N+](=O)[O-])cc2)cc(=O)n(C)c1=O | inactive | –
CC(C)Cn1nc(C(=O)O)c2c1CCN(C(=O)CC(C)c1ccccc1)C2 (centres undefined) | inconclusive: 22.4 µM [inhibitor, full curve] | –
Cc1ccc2nc(/C=C/c3ccc([N+](=O)[O-])cc3)ccc2c1 | inconclusive: 10 µM [inhibitor, full curve, poor fit] | –
COC(=O)c1cc2ccccc2n1Cc1ccc(Cl)nc1 | inconclusive: 8.91 µM [inhibitor, full curve, poor fit] | –
COC(=O)c1ccoc1COC(=O)CCc1ccc(-c2ccccc2)o1 | inconclusive: 5.62 µM [inhibitor, full curve] | –
S=c1[nH]nc(-c2cccs2)n1/N=C/c1cn(-c2ccccc2)nc1-c1cccs1 | – | inactive: 0%
CN(CC1CCOCC1)C(=O)CC1C(=O)NCCN1Cc1ccc(F)c(F)c1 (centres undefined) | inconclusive: 39.8 µM [inhibitor, partial curve, poor fit] | –
COc1ccc(-c2csc(NCCc3nc4cc(C(=O)NCCCO)ccc4n3Cc3ccc(C)cc3)n2)cc1 | inconclusive: 35.5 µM [inhibitor, partial curve] | –
Cc1nc2c(sc(=S)n2Cc2ccco2)c(=O)n1CC(=O)Nc1ccccc1 | inconclusive: 44.7 µM [inhibitor, partial curve, poor fit] | –
CCc1ccc(CNCC2CCCO2)cc1 (centres undefined) | inconclusive: 44.7 µM [inhibitor, partial curve, poor fit] | –
COc1cc(C(=O)OCC(=O)Nc2ccccc2C(=O)NC2CC2)c([N+](=O)[O-])cc1OC | inconclusive: 50.1 µM [inhibitor, partial curve, poor fit] | –
CC(C)N(C(=O)COC(=O)c1ccc(O)cc1)C(C)C | inconclusive: 4.47 µM [inhibitor, single point] | –
CC(=O)Nc1ccc(C=NNc2ccc([N+](=O)[O-])cn2)cc1 | inconclusive: 63.1 µM [inhibitor, partial curve, poor fit] | –
O=[N+]([O-])c1ccc(CNc2cccc(Cl)c2)s1 | inconclusive: 50.1 µM [inhibitor, partial curve, poor fit] | –

Single values from the list.
Potency with `CCc1ccc(CNCC2CCCO2)cc1` (centres undefined) is entered as inconclusive: 44.7 µM [inhibitor, partial curve, poor fit]
Potency with `COC(=O)c1cc2ccccc2n1Cc1ccc(Cl)nc1` is entered as inconclusive: 8.91 µM [inhibitor, full curve, poor fit]

Later entries:

Compound | Potency | activity change, negative = inhibition
O=C(c1cc2c(s1)CCCC2)N1CCN(S(=O)(=O)c2ccccc2C(F)(F)F)CC1 | – | inactive: -10.9%
COc1ccc(S(=O)(=O)N2CCN(Cc3ccc4c(c3)OCO4)CC2)c2ccccc12 | – | inactive: 416%
COc1cccc(-c2cncnc2NCc2cccc(C)c2)c1 | inconclusive: 5.62 µM [inhibitor, full curve, poor fit] | –
c1ccc(OCCn2c(-c3ccco3)nc3ccccc32)cc1 | inconclusive: 44.7 µM [inhibitor, partial curve, poor fit] | –
CC(C)(C)NC(=O)COc1ncnc2ccc(Br)cc12 | – | inactive: 12.9%
Cc1cc(Nc2cccc(Cl)c2)nc2ccc(NC(=O)Cc3ccc(Cl)cc3)cc12 | inconclusive: 39.8 µM [inhibitor, full curve, poor fit] | –
Cc1ccc(OCc2nnc(SCC(=O)O)n2N)cc1 | inconclusive: 35.5 µM [inhibitor, partial curve, poor fit] | –
O=C(Cn1nnc2sc(-c3ccccc3)cc2c1=O)Nc1ccccc1 | – | inactive: -19.1%
Cc1noc(C)c1-c1nccc(NC2CC2)n1 | active: 7.08 µM | –
COc1ccc(-c2cc3c(ccc4ccccc43)oc2=O)cc1 | inconclusive: 112 µM [inhibitor, single point] | –
CC(C)NC(=O)N1CC2ON=C(C(=O)NCCc3ccc(Cl)cc3)C2C1 (centres undefined) | inconclusive: 100 µM [inhibitor, partial curve, poor fit] | –
O=C(CC1=NC2(CCCC2)Cc2ccccc21)N1CCOCC1 | inconclusive: 5.62 µM [inhibitor, full curve, poor fit] | –
O=C(COC(=O)c1ccccc1OCC(=O)Nc1ccc(Br)cc1)Nc1ccccc1 | – | inactive: -4.96%
CNc1cc(-c2cccc(N(C)C)c2)ncn1 | inconclusive: 126 µM [inhibitor, single point] | –
N#Cc1ccc(OCC(=O)Nc2nc(-c3ccccn3)cs2)cc1 | active: 17.8 µM | –
NS(=O)(=O)c1ccc(N2N=C(c3ccccc3)CC2c2ccccc2)cc1 (centres undefined) | inconclusive: 141 µM [inhibitor, partial curve, poor fit] | –
CCN(CC)S(=O)(=O)c1ccc(-c2nc(C#N)c(N(C)Cc3ccccc3)o2)cc1 | – | inactive: 3.56%
O=C(CCc1c[nH]c2ccccc12)OCC(=O)c1ccc(Cl)c([N+](=O)[O-])c1 | inconclusive: 25.1 µM [inhibitor, partial curve, poor fit] | –
COc1ccccc1Nc1c2c(nc3ccc(NC(=O)c4ccc(OC)c(OC)c4)cc13)CCCC2 | inconclusive: 31.6 µM [inhibitor, partial curve, poor fit] | –
CCN1c2cc(C(=O)Nc3ccc(Br)cc3)ccc2C(=O)N2CCCC21 (centres undefined) | inconclusive: 11.2 µM [inhibitor, partial curve, poor fit] | –
CCOC(=O)C1=C(CN(C)Cc2ccccc2)NC(=O)NC1c1ccc(CC)cc1 (centres undefined) | inconclusive: 31.6 µM [inhibitor, partial curve, poor fit] | –
CCOC(=O)COc1ccc(/C=C/[N+](=O)[O-])c(OCC(=O)OCC)c1 | inconclusive: 39.8 µM [inhibitor, partial curve, poor fit] | –

Compound | Potency | activity change, negative = inhibition
CCn1cnc2c1c(=O)n(CC(=O)Nc1ccc(OC(F)F)cc1)c(=O)n2Cc1ccccc1 | inconclusive: 50.1 µM [inhibitor, partial curve, poor fit] | –
CNC(=O)/C(C#N)=C/c1c(N(Cc2ccccc2)Cc2ccccc2)nc2ccccn2c1=O | inconclusive: 70.8 µM [inhibitor, partial curve, poor fit] | –
CC1C(=O)NN=C1C(=O)N/N=C/c1cccs1 (centres undefined) | inconclusive: 31.6 µM [inhibitor, single point] | –
CN1CCC2(CC1)N=C(c1ccc(F)cc1)C(=S)N2C(=O)c1ccc(C(C)(C)C)cc1 | inconclusive: 50.1 µM [inhibitor, partial curve, poor fit] | –
C/C(=N\NC(=S)NCc1ccccc1)C(C)C | inconclusive: 44.7 µM [inhibitor, partial curve, poor fit] | –
CN(C)C(=O)c1cn(-c2ccccc2)nc1-c1cc2ccccc2o1 | – | inactive: 3.91%
O=C(c1cc(-c2cccc(Cl)c2)nc2ccccc12)N1CCN(c2ccccn2)CC1 | – | inactive: 0%
COCCn1c(SCC(=O)Nc2ccc(S(N)(=O)=O)cc2)nc2ccccc21 | – | inactive: 57.1%
Cn1cc(-c2cnc3[nH]cc(CC(=O)NCc4cccc(F)c4)c3c2)cn1 | inconclusive: 126 µM [inhibitor, partial curve, poor fit] | –
CCOC(=O)c1cc(Cl)c2c(ccc3ccccc32)n1 | inconclusive: 8.91 µM [inhibitor, full curve, poor fit] | –
O=c1cc(CN2CCN(c3ccccc3F)CC2)c2c(ccc3ccccc32)o1 | inconclusive: 39.8 µM [inhibitor, partial curve, poor fit] | –
CCOC(=O)[C@H]1[C@H]2COc3ccc(Br)cc3[C@H]2N2C(=O)CN(Cc3ccc(Cl)cc3)C(=O)[C@@]12C | inconclusive: 7.94 µM [inhibitor, full curve, poor fit] | –
COc1ccc(/C=C/C(=O)c2ccoc2)cc1 | inconclusive: 79.4 µM [inhibitor, partial curve, poor fit] | –
COc1ccc(/C=N/Nc2nc(-c3cccc(S(=O)(=O)N4CCCC4)c3)cs2)c(OC)c1 | inconclusive: 44.7 µM [inhibitor, partial curve, poor fit] | –
CCCn1c(=S)[nH]c2cc(C(=O)N3CCN(c4ccccc4OC)CC3)ccc2c1=O | – | inactive: 1.01%
Cc1ccc(CNS(=O)(=O)c2cc(F)ccc2CN2C(=O)c3cccnc3C2=O)o1 | inconclusive: 44.7 µM [inhibitor, partial curve, poor fit] | –
COc1ccccc1C(=O)Nc1ccnn1C1CCN(Cc2ccccc2OCCO)CC1 | – | inactive: 0.384%
COC(=O)C1=C(C)N(Cc2cccc(C(F)(F)F)c2)C(=NCc2ccc3c(c2)OCO3)NC1c1ccc(F)cc1 (centres undefined) | inconclusive: 70.8 µM [inhibitor, partial curve, poor fit] | –
c1ccc2sc(SSc3nc4ccccc4s3)nc2c1 | active: 4.96 µM | –
O=S(=O)(Nc1cccc(-c2ccc3nncn3n2)c1)c1ccc(Cl)s1 | inconclusive: 100 µM [inhibitor, single point] | –

14 of these compounds, set out differently.
Compound	Potency	activity change, negative = inhibition
COc1cc(C(=O)OCC(=O)Nc2ccccc2C(=O)NC2CC2)c([N+](=O)[O-])cc1OC	inconclusive: 50.1 µM [inhibitor, partial curve, poor fit]	–
CC(C)N(C(=O)COC(=O)c1ccc(O)cc1)C(C)C	inconclusive: 4.47 µM [inhibitor, single point]	–
CC(=O)Nc1ccc(C=NNc2ccc([N+](=O)[O-])cn2)cc1	inconclusive: 63.1 µM [inhibitor, partial curve, poor fit]	–
O=[N+]([O-])c1ccc(CNc2cccc(Cl)c2)s1	inconclusive: 50.1 µM [inhibitor, partial curve, poor fit]	–
O=C(c1cc2c(s1)CCCC2)N1CCN(S(=O)(=O)c2ccccc2C(F)(F)F)CC1	–	inactive: -10.9%
COc1ccc(S(=O)(=O)N2CCN(Cc3ccc4c(c3)OCO4)CC2)c2ccccc12	–	inactive: 416%
COc1cccc(-c2cncnc2NCc2cccc(C)c2)c1	inconclusive: 5.62 µM [inhibitor, full curve, poor fit]	–
c1ccc(OCCn2c(-c3ccco3)nc3ccccc32)cc1	inconclusive: 44.7 µM [inhibitor, partial curve, poor fit]	–
CC(C)(C)NC(=O)COc1ncnc2ccc(Br)cc12	–	inactive: 12.9%
Cc1cc(Nc2cccc(Cl)c2)nc2ccc(NC(=O)Cc3ccc(Cl)cc3)cc12	inconclusive: 39.8 µM [inhibitor, full curve, poor fit]	–
Cc1ccc(OCc2nnc(SCC(=O)O)n2N)cc1	inconclusive: 35.5 µM [inhibitor, partial curve, poor fit]	–
O=C(Cn1nnc2sc(-c3ccccc3)cc2c1=O)Nc1ccccc1	–	inactive: -19.1%
Cc1noc(C)c1-c1nccc(NC2CC2)n1	active: 7.08 µM	–
COc1ccc(-c2cc3c(ccc4ccccc43)oc2=O)cc1	inconclusive: 112 µM [inhibitor, single point]	–
